This is one part of the list.
Key:
Test in all cases: log2 fold change, soluble protein after heating vs DMSO (PISA); higher = thermal stabilisation; K562 lysate, 10 uM; active = over 0.2 and 3.5 SD of the protein, either way, in both replicates (recomputed)
lapatinib = compound: CS(=O)(=O)CCNCc1ccc(-c2ccc3ncnc(Nc4ccc(OCc5cccc(F)c5)c(Cl)c4)c3c2)o1 [lapatinib]
How it was run: (§1)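 A 30 min treatment with 10 μM compound was applied to crude K562 extract at 1 mg/mL protein in PBS pH 7.4 with 1 mM MgCl2. Heating for 3 min spanned 48°C-58°C, after which aliquots were pooled, adjusted to 0.5% NP-40 at 4°C and spun at 21,000xg for 90 min. TMTpro 16plex LC-MS/MS of the supernatant, with channel sums equalised, gave values recorded as log-two fold change in thermal stability against solvent controls, from duplicates.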

Amino acid sequences for entries named in this document (tags omitted). A change or cut given only in a name is not applied to a line headed by its entry.
UniProt Q96JN8: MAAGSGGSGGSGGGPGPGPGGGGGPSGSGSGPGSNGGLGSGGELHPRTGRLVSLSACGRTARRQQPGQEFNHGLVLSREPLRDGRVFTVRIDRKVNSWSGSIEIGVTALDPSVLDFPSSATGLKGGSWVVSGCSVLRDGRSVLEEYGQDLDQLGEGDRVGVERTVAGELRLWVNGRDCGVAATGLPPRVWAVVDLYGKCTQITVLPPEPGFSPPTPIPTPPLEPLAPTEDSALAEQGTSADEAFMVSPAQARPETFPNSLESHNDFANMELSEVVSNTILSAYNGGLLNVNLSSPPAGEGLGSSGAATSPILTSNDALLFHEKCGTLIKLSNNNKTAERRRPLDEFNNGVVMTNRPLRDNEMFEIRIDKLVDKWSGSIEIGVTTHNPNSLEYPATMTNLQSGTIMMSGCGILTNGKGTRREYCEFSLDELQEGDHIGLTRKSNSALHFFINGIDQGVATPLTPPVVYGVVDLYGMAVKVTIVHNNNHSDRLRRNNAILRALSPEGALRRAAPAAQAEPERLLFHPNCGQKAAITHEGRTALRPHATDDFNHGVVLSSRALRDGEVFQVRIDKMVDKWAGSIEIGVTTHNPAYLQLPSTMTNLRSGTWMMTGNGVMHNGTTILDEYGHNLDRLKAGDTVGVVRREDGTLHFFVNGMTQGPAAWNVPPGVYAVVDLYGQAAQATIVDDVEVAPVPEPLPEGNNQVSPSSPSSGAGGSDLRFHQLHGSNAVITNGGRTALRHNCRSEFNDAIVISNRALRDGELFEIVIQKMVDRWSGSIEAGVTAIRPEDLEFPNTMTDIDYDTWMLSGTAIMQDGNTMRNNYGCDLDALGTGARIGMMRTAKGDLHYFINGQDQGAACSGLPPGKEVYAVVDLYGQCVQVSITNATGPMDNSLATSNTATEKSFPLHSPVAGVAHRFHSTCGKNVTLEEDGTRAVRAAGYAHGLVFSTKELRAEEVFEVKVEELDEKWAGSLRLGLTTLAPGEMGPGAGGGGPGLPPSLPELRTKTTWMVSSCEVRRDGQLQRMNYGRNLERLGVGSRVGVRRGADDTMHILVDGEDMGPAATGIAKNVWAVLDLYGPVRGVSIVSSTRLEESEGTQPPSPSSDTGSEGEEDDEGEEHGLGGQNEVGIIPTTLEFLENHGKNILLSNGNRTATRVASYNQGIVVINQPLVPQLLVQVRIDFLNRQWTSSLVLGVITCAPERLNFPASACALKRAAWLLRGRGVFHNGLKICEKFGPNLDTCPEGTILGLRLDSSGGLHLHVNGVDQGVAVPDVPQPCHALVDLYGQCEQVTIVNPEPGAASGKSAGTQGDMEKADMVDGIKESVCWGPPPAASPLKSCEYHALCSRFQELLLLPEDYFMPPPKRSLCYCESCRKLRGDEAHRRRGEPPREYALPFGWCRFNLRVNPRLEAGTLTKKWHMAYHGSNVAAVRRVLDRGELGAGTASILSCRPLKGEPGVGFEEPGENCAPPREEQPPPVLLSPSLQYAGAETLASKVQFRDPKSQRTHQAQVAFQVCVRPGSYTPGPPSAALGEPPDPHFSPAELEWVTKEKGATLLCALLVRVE
UniProt Q7RTR2: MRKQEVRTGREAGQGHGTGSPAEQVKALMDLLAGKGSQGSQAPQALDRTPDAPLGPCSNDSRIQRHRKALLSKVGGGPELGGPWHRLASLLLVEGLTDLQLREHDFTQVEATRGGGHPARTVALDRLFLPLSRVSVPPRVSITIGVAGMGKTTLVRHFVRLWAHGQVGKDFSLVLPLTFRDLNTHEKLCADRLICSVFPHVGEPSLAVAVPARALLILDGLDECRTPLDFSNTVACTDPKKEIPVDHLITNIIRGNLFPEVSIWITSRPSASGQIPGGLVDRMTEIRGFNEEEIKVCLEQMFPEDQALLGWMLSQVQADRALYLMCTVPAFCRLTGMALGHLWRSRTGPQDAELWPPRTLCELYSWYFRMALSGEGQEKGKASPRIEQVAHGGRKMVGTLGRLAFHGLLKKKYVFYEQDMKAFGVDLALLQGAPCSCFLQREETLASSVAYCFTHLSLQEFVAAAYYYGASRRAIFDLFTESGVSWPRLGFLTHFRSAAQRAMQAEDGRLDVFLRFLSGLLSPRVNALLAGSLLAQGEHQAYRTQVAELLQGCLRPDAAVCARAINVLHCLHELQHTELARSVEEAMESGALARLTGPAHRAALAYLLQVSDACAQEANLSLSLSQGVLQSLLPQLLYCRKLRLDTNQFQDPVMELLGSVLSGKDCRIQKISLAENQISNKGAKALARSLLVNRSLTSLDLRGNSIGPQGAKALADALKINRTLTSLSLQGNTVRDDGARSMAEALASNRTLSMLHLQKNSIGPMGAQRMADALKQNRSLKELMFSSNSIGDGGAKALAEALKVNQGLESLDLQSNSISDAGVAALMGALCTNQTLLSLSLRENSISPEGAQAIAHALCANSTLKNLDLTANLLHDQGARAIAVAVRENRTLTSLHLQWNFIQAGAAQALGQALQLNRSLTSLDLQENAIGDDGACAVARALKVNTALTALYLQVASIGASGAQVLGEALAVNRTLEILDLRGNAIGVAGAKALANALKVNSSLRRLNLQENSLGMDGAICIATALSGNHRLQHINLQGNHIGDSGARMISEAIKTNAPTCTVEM
UniProt O14524: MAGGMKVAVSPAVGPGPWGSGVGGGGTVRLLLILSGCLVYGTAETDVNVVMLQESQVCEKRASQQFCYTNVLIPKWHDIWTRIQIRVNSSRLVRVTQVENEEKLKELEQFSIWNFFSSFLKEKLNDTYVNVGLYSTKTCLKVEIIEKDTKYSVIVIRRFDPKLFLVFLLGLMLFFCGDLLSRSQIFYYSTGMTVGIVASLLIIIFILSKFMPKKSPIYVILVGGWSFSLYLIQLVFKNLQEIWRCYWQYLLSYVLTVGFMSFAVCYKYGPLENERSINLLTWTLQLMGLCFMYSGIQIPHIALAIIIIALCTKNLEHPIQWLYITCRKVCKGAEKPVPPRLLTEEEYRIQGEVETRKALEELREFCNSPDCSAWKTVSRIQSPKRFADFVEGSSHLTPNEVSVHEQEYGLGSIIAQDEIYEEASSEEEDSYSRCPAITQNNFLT
UniProt Q86SG6: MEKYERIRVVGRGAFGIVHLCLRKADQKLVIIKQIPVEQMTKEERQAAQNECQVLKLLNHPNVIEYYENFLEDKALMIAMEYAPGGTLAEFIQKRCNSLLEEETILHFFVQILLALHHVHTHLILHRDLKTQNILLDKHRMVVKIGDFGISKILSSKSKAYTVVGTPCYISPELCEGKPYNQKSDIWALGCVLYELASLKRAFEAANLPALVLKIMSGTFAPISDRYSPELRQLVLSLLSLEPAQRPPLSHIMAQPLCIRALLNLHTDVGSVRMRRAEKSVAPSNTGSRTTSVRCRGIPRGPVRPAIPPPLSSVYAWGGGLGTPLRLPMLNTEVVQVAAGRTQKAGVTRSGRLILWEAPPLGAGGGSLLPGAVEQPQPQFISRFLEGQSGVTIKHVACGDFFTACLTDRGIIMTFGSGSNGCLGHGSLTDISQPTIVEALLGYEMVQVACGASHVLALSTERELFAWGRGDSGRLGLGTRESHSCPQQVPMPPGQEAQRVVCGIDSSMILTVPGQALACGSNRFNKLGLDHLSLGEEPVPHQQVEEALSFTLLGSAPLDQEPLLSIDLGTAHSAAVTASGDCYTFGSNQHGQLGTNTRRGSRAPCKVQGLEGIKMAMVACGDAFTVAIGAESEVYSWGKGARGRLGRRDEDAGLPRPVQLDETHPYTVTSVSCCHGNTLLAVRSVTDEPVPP
UniProt P25963: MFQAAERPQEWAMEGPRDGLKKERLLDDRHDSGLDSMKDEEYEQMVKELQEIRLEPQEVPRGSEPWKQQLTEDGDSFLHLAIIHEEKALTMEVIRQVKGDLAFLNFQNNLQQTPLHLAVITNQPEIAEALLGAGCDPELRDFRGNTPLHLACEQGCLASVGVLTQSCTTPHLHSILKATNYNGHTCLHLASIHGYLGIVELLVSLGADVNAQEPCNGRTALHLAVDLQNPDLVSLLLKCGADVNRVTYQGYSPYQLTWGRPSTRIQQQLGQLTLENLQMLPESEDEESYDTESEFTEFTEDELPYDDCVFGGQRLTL
UniProt O75438, whole entry, looked up: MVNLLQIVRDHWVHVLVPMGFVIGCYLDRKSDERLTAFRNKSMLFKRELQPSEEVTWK
UniProt Q92859: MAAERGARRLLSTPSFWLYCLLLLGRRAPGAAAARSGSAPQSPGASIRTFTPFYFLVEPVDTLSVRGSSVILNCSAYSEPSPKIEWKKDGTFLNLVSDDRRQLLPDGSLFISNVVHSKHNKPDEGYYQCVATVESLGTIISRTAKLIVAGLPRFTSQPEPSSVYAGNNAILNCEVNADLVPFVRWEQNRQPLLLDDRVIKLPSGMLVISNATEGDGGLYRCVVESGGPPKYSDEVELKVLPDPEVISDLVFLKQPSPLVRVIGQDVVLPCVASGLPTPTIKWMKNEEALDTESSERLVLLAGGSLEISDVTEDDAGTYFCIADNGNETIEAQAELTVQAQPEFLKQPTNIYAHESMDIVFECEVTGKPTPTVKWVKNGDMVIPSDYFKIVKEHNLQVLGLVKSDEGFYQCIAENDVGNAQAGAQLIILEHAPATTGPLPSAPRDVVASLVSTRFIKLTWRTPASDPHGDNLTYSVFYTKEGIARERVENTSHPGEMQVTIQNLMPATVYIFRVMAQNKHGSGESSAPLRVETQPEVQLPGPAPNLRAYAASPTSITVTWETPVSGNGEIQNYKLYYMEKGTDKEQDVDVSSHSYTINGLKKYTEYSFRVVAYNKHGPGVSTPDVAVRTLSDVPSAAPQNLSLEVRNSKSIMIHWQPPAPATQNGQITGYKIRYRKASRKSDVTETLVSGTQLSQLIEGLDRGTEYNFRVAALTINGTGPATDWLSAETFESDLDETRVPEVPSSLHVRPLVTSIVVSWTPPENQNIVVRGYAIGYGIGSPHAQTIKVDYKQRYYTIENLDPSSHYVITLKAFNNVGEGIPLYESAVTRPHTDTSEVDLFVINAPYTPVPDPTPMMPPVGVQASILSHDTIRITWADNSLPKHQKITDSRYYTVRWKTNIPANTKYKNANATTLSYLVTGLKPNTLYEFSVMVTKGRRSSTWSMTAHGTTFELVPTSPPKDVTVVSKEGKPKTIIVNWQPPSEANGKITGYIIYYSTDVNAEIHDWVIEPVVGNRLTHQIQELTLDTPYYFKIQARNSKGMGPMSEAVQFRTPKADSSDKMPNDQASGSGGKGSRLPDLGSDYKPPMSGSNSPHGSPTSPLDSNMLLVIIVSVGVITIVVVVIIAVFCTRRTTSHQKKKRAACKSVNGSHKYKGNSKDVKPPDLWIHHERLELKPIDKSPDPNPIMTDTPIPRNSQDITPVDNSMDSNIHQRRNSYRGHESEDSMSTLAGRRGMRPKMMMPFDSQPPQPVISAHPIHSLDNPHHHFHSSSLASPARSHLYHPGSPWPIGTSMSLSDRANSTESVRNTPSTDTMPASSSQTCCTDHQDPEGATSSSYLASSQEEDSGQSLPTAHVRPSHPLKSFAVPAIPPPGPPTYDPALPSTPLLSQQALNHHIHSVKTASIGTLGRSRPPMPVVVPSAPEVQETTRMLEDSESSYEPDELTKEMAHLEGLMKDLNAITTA
UniProt Q9UQ49: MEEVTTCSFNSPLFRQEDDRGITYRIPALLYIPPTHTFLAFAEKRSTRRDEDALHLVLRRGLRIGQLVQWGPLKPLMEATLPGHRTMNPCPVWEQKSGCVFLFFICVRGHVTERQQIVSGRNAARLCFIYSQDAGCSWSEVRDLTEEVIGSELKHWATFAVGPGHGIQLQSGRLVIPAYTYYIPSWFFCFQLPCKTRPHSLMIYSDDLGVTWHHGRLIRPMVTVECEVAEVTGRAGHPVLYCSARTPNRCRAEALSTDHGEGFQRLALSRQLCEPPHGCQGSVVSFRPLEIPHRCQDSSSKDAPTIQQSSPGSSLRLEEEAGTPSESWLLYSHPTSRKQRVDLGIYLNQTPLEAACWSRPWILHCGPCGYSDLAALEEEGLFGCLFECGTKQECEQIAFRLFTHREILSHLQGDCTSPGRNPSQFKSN
UniProt Q8NEJ9: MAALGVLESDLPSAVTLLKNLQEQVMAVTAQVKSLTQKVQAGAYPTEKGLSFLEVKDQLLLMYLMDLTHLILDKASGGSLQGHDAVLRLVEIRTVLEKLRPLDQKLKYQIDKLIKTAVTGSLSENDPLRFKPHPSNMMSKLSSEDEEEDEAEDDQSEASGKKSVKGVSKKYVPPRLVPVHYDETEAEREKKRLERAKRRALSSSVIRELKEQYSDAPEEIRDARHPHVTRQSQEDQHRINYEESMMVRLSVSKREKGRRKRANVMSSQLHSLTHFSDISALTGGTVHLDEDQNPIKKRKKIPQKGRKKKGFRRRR
UniProt Q9NYS0: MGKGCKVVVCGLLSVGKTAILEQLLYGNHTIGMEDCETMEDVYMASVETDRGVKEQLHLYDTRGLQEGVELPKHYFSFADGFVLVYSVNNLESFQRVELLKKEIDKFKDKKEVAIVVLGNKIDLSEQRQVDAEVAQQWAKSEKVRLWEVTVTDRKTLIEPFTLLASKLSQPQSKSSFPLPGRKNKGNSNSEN

crizotinib = compound: C[C@@H](Oc1cc(-c2cnn(C3CCNCC3)c2)cnc1N)c1c(Cl)ccc(F)c1Cl [crizotinib]
How it was run: as §1

[1] = compound: C[C@H](C1=CC=C(C=C1)C(=O)NC2=C3C=CNC3=NC=C2)N
How it was run: as §1

gandotinib = compound: Cc1cc(Nc2cc(CN3CCOCC3)c3nc(C)c(Cc4ccc(Cl)cc4F)n3n2)n[nH]1 [gandotinib]
How it was run: as §1

doramapimod = compound: Cc1ccc(-n2nc(C(C)(C)C)cc2NC(=O)Nc2ccc(OCCN3CCOCC3)c3ccccc23)cc1 [doramapimod]
How it was run: as §1

[2] = compound: Cc1cccc(CC(=O)N2CCc3c2ccc(-c2cn(C)c4ncnc(N)c24)c3F)n1
How it was run: as §1

quisinostat = compound: Cn1cc(CNCC2CCN(c3ncc(C(=O)NO)cn3)CC2)c2ccccc21 [quisinostat]
How it was run: as §1

[3] = compound: NC(=O)Nc1cc(-c2cccc(F)c2)sc1C(=O)N[C@H]1CCCNC1
How it was run: as §1

[4] = compound: NC(=O)c1cnc(N[C@@H]2CCCC[C@@H]2N)nc1Nc1cccc(-n2nccn2)c1
How it was run: as §1

[5] = compound: NC1(c2ccc(-c3nc4ccn5c(=O)[nH]nc5c4cc3-c3ccccc3)cc2)CCC1
How it was run: as §1

nilotinib = compound: Cc1cn(-c2cc(NC(=O)c3ccc(C)c(Nc4nccc(-c5cccnc5)n4)c3)cc(C(F)(F)F)c2)cn1 [nilotinib]
How it was run: as §1

[6] = compound: Cc1nc(Nc2n[nH]c3c2CN(C(=O)N[C@H](CN(C)C)c2ccccc2)C3(C)C)c2sccc2n1
How it was run: as §1

[7] = compound: Cc1ncc(-c2ccnc(Nc3ccc(S(C)(=O)=O)cc3)n2)n1C(C)C
How it was run: as §1

tipifarnib = compound: Cn1cncc1[C@@](N)(c1ccc(Cl)cc1)c1ccc2c(c1)c(-c1cccc(Cl)c1)cc(=O)n2C [tipifarnib]
How it was run: as §1

duvelisib = compound: C[C@H](Nc1ncnc2nc[nH]c12)c1cc2cccc(Cl)c2c(=O)n1-c1ccccc1 [duvelisib]
How it was run: as §1

tozasertib = compound: Cc1cc(Nc2cc(N3CCN(C)CC3)nc(Sc3ccc(NC(=O)C4CC4)cc3)n2)n[nH]1 [tozasertib]
How it was run: as §1

dasatinib = compound: Cc1nc(Nc2ncc(C(=O)Nc3c(C)cccc3Cl)s2)cc(N2CCN(CCO)CC2)n1 [dasatinib]
How it was run: as §1

[8] = compound: Cn1cc(-c2ccc3c(c2)CCN3C(=O)Cc2cccc(C(F)(F)F)c2)c2c(N)ncnc21
How it was run: as §1

pictilisib = compound: CS(=O)(=O)N1CCN(Cc2cc3nc(-c4cccc5[nH]ncc45)nc(N4CCOCC4)c3s2)CC1 [pictilisib]
How it was run: as §1

bafetinib = compound: Cc1ccc(NC(=O)c2ccc(CN3CC[C@H](N(C)C)C3)c(C(F)(F)F)c2)cc1Nc1nccc(-c2cncnc2)n1 [bafetinib]
How it was run: as §1

Measured: log2 fold change

NIN isoform 7 (UniProt Q8N4C6)
inactive: lapatinib 0.054 | crizotinib -0.042 | [1] 0.009 | gandotinib -0.136 | doramapimod -0.041 | [2] -0.052 | quisinostat 0.044 | [3] 0.042 | [4] 0.016 | [5] -0.018

NEIL2 (UniProt Q969S2)
inactive: nilotinib -0.253 | [6] -0.144 | [7] 0.035 | tipifarnib -0.036 | [5] 0.008

NEURL4 (UniProt Q96JN8)
inactive: lapatinib 0.057 | crizotinib -0.104 | [1] 0.059 | duvelisib 0.048 | gandotinib -0.149 | tozasertib 0.099 | doramapimod -0.342 | [2] 0 | dasatinib 0.006 | [8] 0.034 | quisinostat 0.095 | [3] -0.129 | [4] -0.063 | [5] 0.145

NDUFA3 (UniProt O95167)
inactive: pictilisib -0.08 | crizotinib -0.06 | [1] 0.011 | duvelisib -0.006 | gandotinib -0.018 | tozasertib 0.011 | doramapimod 0.016 | bafetinib -0.231 | [2] 0.17 | nilotinib -0.137 | [6] -0.034 | dasatinib -0.051 | [7] 0.063 | [8] 0.038 | quisinostat -0.078 | tipifarnib -0.232 | [3] 0.033 | [5] -0.032

NFYC isoform 3 (UniProt Q13952)
inactive: duvelisib 0.026 | dasatinib 0.042 | [8] -0.213 | [5] 0.051

NLRC3 isoform 2 (UniProt Q7RTR2)
inactive: lapatinib -0.013 | pictilisib -0.051 | crizotinib -0.101 | duvelisib 0.067 | tozasertib 0.045 | doramapimod 0.067 | bafetinib -0.253 | nilotinib -0.119 | [6] 0.206 | dasatinib -0.025 | [7] -0.085 | [8] -0.022 | quisinostat -0.183 | tipifarnib -0.015 | [3] -0.031 | [4] -0.001 | [5] -0.141

NKX2-2 (UniProt O95096)
inactive: lapatinib -0.089 | pictilisib -0.022 | crizotinib -0.328 | [1] -0.357 | gandotinib 0.278 | tozasertib 0.011 | doramapimod 0.037 | bafetinib -0.059 | [2] 0.279 | quisinostat -0.468 | [3] -0.011 | [4] 0.121 | [5] -0.066

NEMP1 (UniProt O14524)
inactive: pictilisib -0.124 | crizotinib -0.002 | doramapimod 0.09 | bafetinib -0.016 | quisinostat 0.157 | [3] 0.029

NLK (UniProt Q9UBE8)
inactive: [1] -0.036 | gandotinib 0.021 | [2] 0.203 | [5] 0.066

NEK8 (UniProt Q86SG6)
inactive: [1] -0.094 | gandotinib 0.103 | [2] 0.049 | nilotinib 0.079 | [6] -0.081 | [7] 0.185 | tipifarnib 0.139 | [5] -0.049

NFRKB isoform 2 (UniProt Q6P4R8)
inactive: lapatinib 0.16 | crizotinib -0.082 | [1] 0.036 | gandotinib 0.126 | tozasertib 0.199 | doramapimod -0.017 | [2] 0.025 | nilotinib -0.136 | [6] 0.028 | [7] 0.046 | quisinostat -0.095 | tipifarnib 0.045 | [3] 0.055 | [4] -0.05 | [5] 0.026

NFKBIA (UniProt P25963)
inactive: lapatinib -0.032 | pictilisib -0.025 | crizotinib -0.091 | duvelisib 0.078 | doramapimod 0.127 | bafetinib -0.114 | nilotinib 0.236 | [6] -0.148 | dasatinib -0.151 | [7] -0.177 | [8] 0.096 | quisinostat 0.052 | tipifarnib 0.053 | [3] -0.027 | [4] -0.042 | [5] -0.145

NDUFB1 (UniProt O75438)
inactive: pictilisib -0.108 | crizotinib 0.017 | [1] 0.265 | duvelisib -0.041 | gandotinib -0.223 | doramapimod -0.031 | bafetinib -0.035 | [2] -0.131 | nilotinib 0.02 | [6] 0.024 | dasatinib -0.009 | [7] 0.225 | [8] -0.026 | quisinostat -0.026 | tipifarnib -0.124 | [3] 0.018 | [5] 0.004

NET1 (UniProt Q7Z628)
inactive: crizotinib -0.122 | doramapimod -0.133 | nilotinib 0.044 | [6] 0.077 | [7] -0.144 | quisinostat -0.038 | tipifarnib 0.08 | [3] 0.154 | [5] 0.012

Five successive entries from above, quoted:
NLRC3 isoform 2 (UniProt Q7RTR2)
inactive: lapatinib -0.013 | pictilisib -0.051 | crizotinib -0.101 | duvelisib 0.067 | tozasertib 0.045 | doramapimod 0.067 | bafetinib -0.253 | nilotinib -0.119 | [6] 0.206 | dasatinib -0.025 | [7] -0.085 | [8] -0.022 | quisinostat -0.183 | tipifarnib -0.015 | [3] -0.031 | [4] -0.001 | [5] -0.141

NKX2-2 (UniProt O95096)
inactive: lapatinib -0.089 | pictilisib -0.022 | crizotinib -0.328 | [1] -0.357 | gandotinib 0.278 | tozasertib 0.011 | doramapimod 0.037 | bafetinib -0.059 | [2] 0.279 | quisinostat -0.468 | [3] -0.011 | [4] 0.121 | [5] -0.066

NEMP1 (UniProt O14524)
inactive: pictilisib -0.124 | crizotinib -0.002 | doramapimod 0.09 | bafetinib -0.016 | quisinostat 0.157 | [3] 0.029

NLK (UniProt Q9UBE8)
inactive: [1] -0.036 | gandotinib 0.021 | [2] 0.203 | [5] 0.066

NEK8 (UniProt Q86SG6)
inactive: [1] -0.094 | gandotinib 0.103 | [2] 0.049 | nilotinib 0.079 | [6] -0.081 | [7] 0.185 | tipifarnib 0.139 | [5] -0.049

Next part

NFIL3 (UniProt Q16649)
inactive: lapatinib -0.122 | tozasertib 0.322 | nilotinib -0.014 | [6] -0.022 | [7] -0.03 | tipifarnib -0.027 | [4] 0.605

NEXN (UniProt Q0ZGT2)
inactive: lapatinib 0.066 | pictilisib -0.137 | [1] -0.239 | duvelisib -0.088 | gandotinib 0.172 | tozasertib -0.237 | bafetinib 0.043 | [2] 0.198 | nilotinib -0.022 | [6] -0.011 | dasatinib 0.043 | [7] -0.051 | [8] 0.027 | tipifarnib -0.043 | [4] -0.149 | [5] -0.002

NEO1 (UniProt Q92859)
inactive: pictilisib -0.043 | [1] -0.248 | gandotinib -0.03 | bafetinib -0.244 | [2] 0.166

NFE2L2 (UniProt Q16236)
inactive: crizotinib 0.099 | doramapimod -0.01 | quisinostat 0.031 | [3] -0.125

NFE2L1 (UniProt Q14494)
inactive: crizotinib 0 | [1] -0.181 | gandotinib -0.135 | tozasertib -0.072 | doramapimod -0.07 | [2] 0.086 | quisinostat 0 | [3] 0.034 | [5] 0.025

NFIX (UniProt Q14938)
inactive: tozasertib 0.092

NEU3 isoform 2 (UniProt Q9UQ49)
inactive: lapatinib -0.007 | pictilisib -0.042 | crizotinib -0.016 | duvelisib 0.11 | tozasertib 0.043 | doramapimod 0.034 | bafetinib 0 | nilotinib -0.041 | [6] -0.195 | dasatinib 0.082 | [7] 0.011 | [8] -0.147 | quisinostat 0.017 | tipifarnib -0.034 | [3] 0.032 | [4] 0.003 | [5] 0.123

NGDN (UniProt Q8NEJ9)
inactive: lapatinib 0.092 | crizotinib 0.046 | tozasertib -0.043 | doramapimod 0.083 | nilotinib -0.434 | [6] -0.006 | [7] -0.306 | quisinostat -0.036 | tipifarnib 0.368 | [3] 0.18 | [4] -0.116 | [5] 0.179

NDRG2 (UniProt G3V2A6)
inactive: lapatinib 0.035 | pictilisib -0.288 | bafetinib 0.031 | nilotinib -0.062 | [6] -0.016 | [7] 0.06 | tipifarnib -0.057 | [4] 0.004

NEU4 (UniProt C9JEA3)
inactive: pictilisib -0.018 | crizotinib -0.174 | [1] -0.033 | duvelisib -0.041 | gandotinib 0 | doramapimod 0.083 | bafetinib -0.119 | [2] 0.038 | nilotinib -0.001 | [6] 0.03 | dasatinib -0.055 | [7] -0.001 | [8] 0.016 | quisinostat -0.33 | tipifarnib -0.06 | [3] 0.059 | [5] -0.016

NKIRAS1 (UniProt Q9NYS0)
inactive: lapatinib -0.175 | [1] 0.15 | duvelisib -0.094 | gandotinib 0.036 | tozasertib -0.023 | [2] -0.205 | nilotinib 0.182 | [6] 0.064 | dasatinib -0.183 | [7] -0.029 | [8] 0.106 | tipifarnib 0.134 | [4] -0.119 | [5] -0.128

NKRF isoform 2 (UniProt O15226)
inactive: lapatinib -0.01 | crizotinib -0.032 | [1] 0.103 | duvelisib 0.012 | gandotinib -0.167 | tozasertib 0.088 | doramapimod -0.097 | [2] 0.032 | nilotinib -0.037 | [6] 0.06 | dasatinib -0.015 | [7] -0.013 | [8] 0.007 | quisinostat -0.012 | tipifarnib 0.01 | [3] 0.043 | [4] -0.05 | [5] -0.091

NDST1 (UniProt P52848)
inactive: lapatinib -0.106 | pictilisib -0.039 | crizotinib -0.035 | duvelisib -0.053 | tozasertib 0.051 | doramapimod 0.093 | bafetinib -0.082 | nilotinib -0.174 | [6] -0.085 | dasatinib -0.015 | [7] -0.002 | [8] 0.03 | quisinostat 0.009 | tipifarnib -0.016 | [3] 0.002 | [4] 0.099 | [5] -0.05
